Some of the results follow. Most values lie at the level of the controls, where differences are scatter.

Chains of the proteins cited; added tags and fusions are not shown. Lines headed by an entry give the natural chain unless they say otherwise; changes in a name come on top.
UniProt P49718: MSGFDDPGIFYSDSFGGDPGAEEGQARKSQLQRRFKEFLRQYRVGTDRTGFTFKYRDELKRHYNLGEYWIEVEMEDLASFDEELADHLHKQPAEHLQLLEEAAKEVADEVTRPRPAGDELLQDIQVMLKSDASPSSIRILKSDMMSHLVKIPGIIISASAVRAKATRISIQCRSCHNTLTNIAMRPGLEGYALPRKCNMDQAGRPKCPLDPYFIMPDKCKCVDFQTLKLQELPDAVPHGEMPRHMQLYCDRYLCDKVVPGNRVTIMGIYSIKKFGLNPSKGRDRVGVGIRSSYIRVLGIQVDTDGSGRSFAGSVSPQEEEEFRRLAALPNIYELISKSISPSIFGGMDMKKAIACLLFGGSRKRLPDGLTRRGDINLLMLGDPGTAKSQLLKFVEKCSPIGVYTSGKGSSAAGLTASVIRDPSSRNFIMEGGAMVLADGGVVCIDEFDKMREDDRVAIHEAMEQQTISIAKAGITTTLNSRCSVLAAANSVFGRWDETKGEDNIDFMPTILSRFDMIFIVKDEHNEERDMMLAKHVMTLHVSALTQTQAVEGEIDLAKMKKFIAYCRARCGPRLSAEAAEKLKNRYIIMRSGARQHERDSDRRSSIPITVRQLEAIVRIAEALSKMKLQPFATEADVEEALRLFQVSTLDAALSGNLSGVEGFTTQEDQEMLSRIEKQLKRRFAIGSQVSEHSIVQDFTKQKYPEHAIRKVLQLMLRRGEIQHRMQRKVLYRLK
UniProt P35582: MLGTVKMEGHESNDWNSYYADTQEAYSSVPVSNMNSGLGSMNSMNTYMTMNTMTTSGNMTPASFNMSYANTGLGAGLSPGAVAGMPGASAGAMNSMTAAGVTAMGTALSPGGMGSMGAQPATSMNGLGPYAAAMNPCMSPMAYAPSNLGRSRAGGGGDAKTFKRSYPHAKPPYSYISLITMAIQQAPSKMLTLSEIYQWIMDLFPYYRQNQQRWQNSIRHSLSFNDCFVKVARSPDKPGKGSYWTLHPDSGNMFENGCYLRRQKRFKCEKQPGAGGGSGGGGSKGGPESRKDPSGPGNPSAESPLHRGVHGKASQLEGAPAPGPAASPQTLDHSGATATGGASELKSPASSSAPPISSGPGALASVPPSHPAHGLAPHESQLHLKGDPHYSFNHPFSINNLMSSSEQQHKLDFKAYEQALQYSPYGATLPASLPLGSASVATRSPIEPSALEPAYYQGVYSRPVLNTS
UniProt P52431: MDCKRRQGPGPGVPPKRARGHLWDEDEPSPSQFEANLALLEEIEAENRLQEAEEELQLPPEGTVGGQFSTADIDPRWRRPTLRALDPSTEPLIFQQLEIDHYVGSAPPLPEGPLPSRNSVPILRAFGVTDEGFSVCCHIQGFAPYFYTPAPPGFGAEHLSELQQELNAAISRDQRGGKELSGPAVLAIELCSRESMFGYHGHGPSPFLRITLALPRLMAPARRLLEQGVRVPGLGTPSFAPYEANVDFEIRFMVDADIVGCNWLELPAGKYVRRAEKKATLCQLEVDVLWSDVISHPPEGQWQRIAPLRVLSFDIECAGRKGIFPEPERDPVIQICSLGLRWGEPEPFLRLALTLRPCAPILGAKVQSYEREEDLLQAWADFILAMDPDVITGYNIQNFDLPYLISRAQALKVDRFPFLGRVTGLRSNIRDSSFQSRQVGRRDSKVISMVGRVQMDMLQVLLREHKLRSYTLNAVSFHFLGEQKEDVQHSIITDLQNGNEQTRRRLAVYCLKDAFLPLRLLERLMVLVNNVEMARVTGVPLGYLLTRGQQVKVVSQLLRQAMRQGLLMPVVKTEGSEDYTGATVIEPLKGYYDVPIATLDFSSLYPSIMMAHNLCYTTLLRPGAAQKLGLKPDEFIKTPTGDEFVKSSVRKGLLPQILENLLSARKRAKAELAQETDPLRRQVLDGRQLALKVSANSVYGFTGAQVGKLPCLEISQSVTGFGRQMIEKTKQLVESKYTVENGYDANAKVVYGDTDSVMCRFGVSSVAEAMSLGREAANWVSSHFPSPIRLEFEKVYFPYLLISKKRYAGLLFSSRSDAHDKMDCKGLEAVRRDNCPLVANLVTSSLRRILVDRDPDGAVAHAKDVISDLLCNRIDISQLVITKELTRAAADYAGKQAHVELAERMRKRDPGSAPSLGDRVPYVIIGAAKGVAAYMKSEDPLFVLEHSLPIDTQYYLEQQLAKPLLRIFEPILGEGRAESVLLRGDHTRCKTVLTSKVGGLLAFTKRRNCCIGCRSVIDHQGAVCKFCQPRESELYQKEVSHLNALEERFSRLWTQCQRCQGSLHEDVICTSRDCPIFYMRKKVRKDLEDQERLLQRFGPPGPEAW
UniProt P51954: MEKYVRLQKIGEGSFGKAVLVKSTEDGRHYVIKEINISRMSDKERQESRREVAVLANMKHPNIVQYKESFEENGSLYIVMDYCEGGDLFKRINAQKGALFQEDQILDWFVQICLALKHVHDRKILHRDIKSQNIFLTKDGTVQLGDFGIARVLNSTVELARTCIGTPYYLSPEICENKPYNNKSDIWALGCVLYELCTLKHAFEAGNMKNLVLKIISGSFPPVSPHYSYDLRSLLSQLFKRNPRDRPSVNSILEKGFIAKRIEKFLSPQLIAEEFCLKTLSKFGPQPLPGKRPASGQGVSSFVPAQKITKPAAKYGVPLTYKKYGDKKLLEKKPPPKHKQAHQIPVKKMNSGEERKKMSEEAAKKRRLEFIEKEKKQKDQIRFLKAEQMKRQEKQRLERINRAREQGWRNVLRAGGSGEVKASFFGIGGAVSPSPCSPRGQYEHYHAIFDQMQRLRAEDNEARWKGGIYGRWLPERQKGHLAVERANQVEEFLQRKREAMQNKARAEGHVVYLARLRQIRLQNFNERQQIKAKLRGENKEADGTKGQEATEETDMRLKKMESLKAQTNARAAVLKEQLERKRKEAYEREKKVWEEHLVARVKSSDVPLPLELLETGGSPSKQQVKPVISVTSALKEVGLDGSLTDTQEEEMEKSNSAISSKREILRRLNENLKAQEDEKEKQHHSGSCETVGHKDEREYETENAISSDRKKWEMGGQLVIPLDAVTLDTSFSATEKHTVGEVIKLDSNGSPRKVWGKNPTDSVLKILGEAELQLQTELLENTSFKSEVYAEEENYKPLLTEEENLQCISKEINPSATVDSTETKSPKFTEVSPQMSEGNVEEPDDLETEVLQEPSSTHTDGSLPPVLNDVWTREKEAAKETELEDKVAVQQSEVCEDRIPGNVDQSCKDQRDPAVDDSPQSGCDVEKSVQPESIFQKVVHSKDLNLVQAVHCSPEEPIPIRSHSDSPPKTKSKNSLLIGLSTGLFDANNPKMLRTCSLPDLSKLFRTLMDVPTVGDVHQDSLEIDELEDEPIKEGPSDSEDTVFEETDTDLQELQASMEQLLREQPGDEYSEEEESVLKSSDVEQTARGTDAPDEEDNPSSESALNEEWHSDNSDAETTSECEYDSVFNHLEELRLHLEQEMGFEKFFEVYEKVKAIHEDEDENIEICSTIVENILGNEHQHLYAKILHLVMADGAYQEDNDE
UniProt P46638: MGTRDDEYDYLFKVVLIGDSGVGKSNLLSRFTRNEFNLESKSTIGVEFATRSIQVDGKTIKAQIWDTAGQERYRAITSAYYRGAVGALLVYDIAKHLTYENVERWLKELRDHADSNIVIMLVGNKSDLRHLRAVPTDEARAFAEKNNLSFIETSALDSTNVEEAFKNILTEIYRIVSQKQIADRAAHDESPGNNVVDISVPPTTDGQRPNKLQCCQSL
UniProt P52503, whole entry: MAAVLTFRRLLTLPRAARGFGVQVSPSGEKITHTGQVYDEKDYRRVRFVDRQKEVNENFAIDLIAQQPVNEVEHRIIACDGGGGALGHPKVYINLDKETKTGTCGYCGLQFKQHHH
UniProt P49891: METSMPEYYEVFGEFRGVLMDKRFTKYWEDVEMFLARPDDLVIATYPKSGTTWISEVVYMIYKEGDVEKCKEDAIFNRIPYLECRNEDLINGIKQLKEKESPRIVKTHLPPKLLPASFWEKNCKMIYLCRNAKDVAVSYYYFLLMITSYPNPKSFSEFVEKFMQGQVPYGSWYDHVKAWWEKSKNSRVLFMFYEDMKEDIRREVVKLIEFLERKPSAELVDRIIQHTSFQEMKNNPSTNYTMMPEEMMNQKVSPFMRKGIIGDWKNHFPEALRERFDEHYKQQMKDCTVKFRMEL
UniProt P39054: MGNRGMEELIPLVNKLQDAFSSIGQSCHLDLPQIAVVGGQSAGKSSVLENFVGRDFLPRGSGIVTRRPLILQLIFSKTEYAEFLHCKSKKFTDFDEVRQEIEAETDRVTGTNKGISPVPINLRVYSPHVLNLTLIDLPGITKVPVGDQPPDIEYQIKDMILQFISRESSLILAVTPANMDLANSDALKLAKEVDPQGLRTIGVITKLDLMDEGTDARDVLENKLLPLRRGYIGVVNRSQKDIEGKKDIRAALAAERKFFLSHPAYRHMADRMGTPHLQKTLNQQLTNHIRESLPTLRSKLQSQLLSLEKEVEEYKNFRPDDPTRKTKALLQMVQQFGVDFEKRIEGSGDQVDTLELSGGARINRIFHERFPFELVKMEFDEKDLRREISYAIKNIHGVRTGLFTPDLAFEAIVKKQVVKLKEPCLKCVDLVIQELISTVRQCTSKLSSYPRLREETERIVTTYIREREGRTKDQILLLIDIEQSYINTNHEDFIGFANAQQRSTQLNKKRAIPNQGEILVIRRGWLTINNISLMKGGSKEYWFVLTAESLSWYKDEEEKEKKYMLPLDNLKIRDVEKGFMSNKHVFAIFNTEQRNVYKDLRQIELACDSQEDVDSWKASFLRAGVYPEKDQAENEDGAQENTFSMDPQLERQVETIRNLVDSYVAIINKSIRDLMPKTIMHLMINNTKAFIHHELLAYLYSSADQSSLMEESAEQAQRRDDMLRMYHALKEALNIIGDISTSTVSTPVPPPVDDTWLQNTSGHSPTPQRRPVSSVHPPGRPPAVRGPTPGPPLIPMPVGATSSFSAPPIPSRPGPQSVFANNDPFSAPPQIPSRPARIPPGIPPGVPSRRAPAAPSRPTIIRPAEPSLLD
UniProt P35441: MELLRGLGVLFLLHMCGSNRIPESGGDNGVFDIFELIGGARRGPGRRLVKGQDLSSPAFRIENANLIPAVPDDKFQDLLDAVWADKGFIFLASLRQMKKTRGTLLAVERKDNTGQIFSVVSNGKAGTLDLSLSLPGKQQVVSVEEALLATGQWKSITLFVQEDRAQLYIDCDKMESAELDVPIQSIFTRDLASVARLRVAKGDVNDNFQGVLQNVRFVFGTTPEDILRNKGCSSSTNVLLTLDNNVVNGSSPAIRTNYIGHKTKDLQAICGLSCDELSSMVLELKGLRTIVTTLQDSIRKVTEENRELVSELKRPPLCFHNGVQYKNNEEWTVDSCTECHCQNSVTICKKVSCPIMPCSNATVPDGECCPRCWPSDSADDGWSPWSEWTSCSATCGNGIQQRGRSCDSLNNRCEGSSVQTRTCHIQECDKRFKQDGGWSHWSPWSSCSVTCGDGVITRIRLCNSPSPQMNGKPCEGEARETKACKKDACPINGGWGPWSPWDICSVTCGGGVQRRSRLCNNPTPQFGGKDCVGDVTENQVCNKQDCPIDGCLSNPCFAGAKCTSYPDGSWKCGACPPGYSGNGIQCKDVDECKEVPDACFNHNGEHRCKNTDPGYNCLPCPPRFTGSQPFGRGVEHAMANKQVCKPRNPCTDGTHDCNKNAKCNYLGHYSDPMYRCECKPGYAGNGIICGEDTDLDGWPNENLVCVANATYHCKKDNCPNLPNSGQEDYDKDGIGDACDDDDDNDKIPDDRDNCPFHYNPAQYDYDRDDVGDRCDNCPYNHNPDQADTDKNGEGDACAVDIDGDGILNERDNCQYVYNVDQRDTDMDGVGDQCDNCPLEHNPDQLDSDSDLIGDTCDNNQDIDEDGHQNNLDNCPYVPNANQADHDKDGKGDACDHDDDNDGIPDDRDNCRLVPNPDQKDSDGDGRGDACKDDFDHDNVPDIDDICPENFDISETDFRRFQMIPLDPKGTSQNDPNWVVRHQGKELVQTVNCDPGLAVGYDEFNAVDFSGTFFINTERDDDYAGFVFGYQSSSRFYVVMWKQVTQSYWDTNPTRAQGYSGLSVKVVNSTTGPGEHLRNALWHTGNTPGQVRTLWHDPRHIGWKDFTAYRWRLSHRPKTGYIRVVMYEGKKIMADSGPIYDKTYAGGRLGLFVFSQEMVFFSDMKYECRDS
UniProt P49817: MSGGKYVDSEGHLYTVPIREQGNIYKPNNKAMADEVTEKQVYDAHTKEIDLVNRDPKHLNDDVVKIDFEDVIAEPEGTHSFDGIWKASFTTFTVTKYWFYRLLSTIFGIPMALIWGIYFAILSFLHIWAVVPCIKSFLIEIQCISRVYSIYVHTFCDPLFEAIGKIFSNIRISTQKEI
UniProt P47880: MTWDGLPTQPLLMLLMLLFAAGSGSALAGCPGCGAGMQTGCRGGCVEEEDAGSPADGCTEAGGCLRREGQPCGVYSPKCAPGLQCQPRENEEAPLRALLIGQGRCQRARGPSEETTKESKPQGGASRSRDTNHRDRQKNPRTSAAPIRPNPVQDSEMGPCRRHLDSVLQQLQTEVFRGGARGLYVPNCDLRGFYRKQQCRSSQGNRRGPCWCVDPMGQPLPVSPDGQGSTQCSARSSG

Compound in the assay: CN[C@@H]1C[C@H]2O[C@@](C)([C@@H]1OC)n1c3ccccc3c3c4c(c5c6ccccc6n2c5c31)C(=O)NC4 [staurosporine]
As to the kind of experiment: log2 fold change of tryptic peptide abundance, ligand vs vehicle (limited proteolysis) (log2 ratio); higher = more trypsin-susceptible (destabilized). The note with it: ligand concentration: 20 uM; sample: mouse liver crude lysate; replicate design: treated separately.
In the case of “UniProt P48441 (peptide sequence: LGGPGDSFHPLPR, peptide start residue: 208)”, the log2 fold change was -0.199.
Take “UniProt P47857 (peptide sequence: VFFVHEGYQGLVDGGEHIR, peptide start residue: 48)”: the log2 fold change is -0.229.
For “UniProt P49718 (peptide sequence: FDMIFIVKDEHNEER, peptide start residue: 514)”, the log2 fold change was 0.246.
For “UniProt P49429 (peptide sequence: LLRENLK, peptide start residue: 298)”, the log2 fold change was -0.363.
With “UniProt P35582 (peptide sequence: KDPSGPGNPSAESPLHR, peptide start residue: 291)” the figure was 0.142.
With “UniProt P42669 (peptide sequence: FGHTFCK, peptide start residue: 266)”, the log2 fold change is -0.325.
With “UniProt P52431 (peptide sequence: ILVDRDPDGAVAHAK, peptide start residue: 849)” the figure was 0.268.
Turning to “UniProt P43025 (peptide sequence: MDVLAQEVALLK, peptide start residue: 51)”, the log2 fold change was -0.203.
As for “UniProt P36371 (peptide sequence: IREQLFSSLLR, peptide start residue: 224)”, the log2 fold change came to 0.321.
With “UniProt P51954 (peptide sequence: DGTVQLGDFGIAR, peptide start residue: 139)”, the log2 fold change was -0.565.
In the case of “UniProt P42925 (peptide sequence: ALAQYLLLLK, peptide start residue: 21)”, the log2 fold change was determined as 0.993.
Take “UniProt P46638 (peptide sequence: AITSAYYR, peptide start residue: 75)”: the log2 fold change was 0.182.
On to “UniProt P52503 (peptide sequence: ITHTGQVYDEKDYRR, peptide start residue: 31)”, for which the log2 fold change stood at 0.246.
In the case of “UniProt P49891 (peptide sequence: IPYLECR, peptide start residue: 79)”, the log2 fold change was -0.106.
Take “UniProt P41230 (peptide sequence: DLPVGLEELR, peptide start residue: 1060)”: the log2 fold change was determined as 0.209.
As to “UniProt P46471 (peptide sequence: IINADSEDPKYIINVK, peptide start residue: 101)”, the log2 fold change is -0.156.
On to “UniProt P35564 (peptide sequence: TDAPQPDVKDEEGKEEEK, peptide start residue: 518)”, for which the log2 fold change came to 0.225.
“UniProt P39054 (peptide sequence: DMILQFISR, peptide start residue: 158)”: the log2 fold change was -0.274.
In the case of “UniProt P49769 (peptide sequence: LDNPEPISNGRPQSNSR, peptide start residue: 44)”, the log2 fold change was -0.191.
Take “UniProt P41158 (peptide sequence: ERPPQPGAK, peptide start residue: 125)”: the log2 fold change is -0.475.
For “UniProt P35396 (peptide sequence: CLALGMSHNAIR, peptide start residue: 132)”, the log2 fold change was found to be 0.132.
Regarding “UniProt P37913 (peptide sequence: TEVKQEESGTLR, peptide start residue: 240)”, the log2 fold change was -0.305.
With “UniProt P35441 (peptide sequence: AGTLDLSLSLPGK, peptide start residue: 125)” the figure was 0.243.
For “UniProt P48381 (peptide sequence: STLYNHYLR, peptide start residue: 202)”, the log2 fold change came out at 0.338.
Take “UniProt P41136 (peptide sequence: ELVPSIPQNK, peptide start residue: 48)”: the log2 fold change was -0.376.
With “UniProt P39429 (peptide sequence: LSEKEHHTEQECPKR, peptide start residue: 145)” the figure was 0.429.
Turning to “UniProt P48410 (peptide sequence: DAGIALLSITHRPSLWK, peptide start residue: 649)”, the log2 fold change stood at 0.143.
In the case of “UniProt P48453 (peptide sequence: AHEAQDAGYR, peptide start residue: 280)”, the log2 fold change came out at 0.287.
“UniProt P35505 (peptide sequence: HQHVFDETTLNNFMGLGQAAWK, peptide start residue: 58)”: the log2 fold change was -0.21.
The value for “UniProt P49817 (peptide sequence: EIDLVNRDPK, peptide start residue: 48)” was 0.152; that for “UniProt P47880 (peptide sequence: GLYVPNCDLR, peptide start residue: 182)” was 0.315.

The values are drawn from the supplement of paper PMC12819154, “High-throughput peptide-centric local stability assay extends protein–ligand identification to membrane proteins, tissues and bacteria” (Nature Structural & Molecular Biology, 2025).
